PubChem BioAssay AID504791 – Drosophila RNAi Screening Center, 2011

Aim: 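Genes whose knock-down strengthens or weakens small-RNA reporter silencing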 (primary screen)
Cells: Drosophila S2-derived reporter cells
Reagent: long dsRNA against Drosophila genes, about 150-250 ng dsRNA per well (siRNA assay); about 80-120 ng (miRNA assay)
Timing: about 5 days (siRNA assay); about 4 days (miRNA assay)
Challenge: copper sulfate induction of reporters: 25 µM (siRNA assay); 200 mM stated (miRNA assay), 1-2 days before reading
Detection: 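Dual luciferase assay: Renilla to firefly signal ratio in each well, scaled to the mean ratio of its plate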
Hit rule: 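First-pass picks had plate-scaled ratios over 1.5 for the siRNA assay, over 1.6 for the miRNA assay, or under 0.6; two distinct dsRNAs had to score alike on retest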
The deposit covers about 23,000 reagents; this is an unselected part of those that have a named target and a result. Over the whole deposit, 199 (0.86%) are marked active. 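Plate-scaled ratios behind the calls are not deposited; printed light signals are raw; many rows marked increased or decreased are still called inactive.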 Unmarked entries are inactive. Reagents against one gene are numbered here. Names joined by + are all predicted targets of the reagent. Not stated in the record: the direction of the score.

Against CG11843 the deposit lists stable assay Renilla, run 1 (luminescence) = 7371; stable assay firefly, run 1 (luminescence) = 3.99e5.
CG2211 scored stable assay Renilla, run 1 (luminescence) = 6287; stable assay firefly, run 1 (luminescence) = 3.49e5.
sisA scored stable assay Renilla, run 1 (luminescence) = 5090; stable assay firefly, run 1 (luminescence) = 3.81e5.
Vha100-4 (Vacuolar H[+] ATPase 100kD subunit 4) scored stable assay Renilla, run 1 (luminescence) = 6471; stable assay firefly, run 1 (luminescence) = 2.79e5.
With knock-down of ninaD (neither inactivation nor afterpotential D) the results were stable assay Renilla, run 1 (luminescence) = 7662; stable assay firefly, run 1 (luminescence) = 4.62e5.
Silencing of whd (withered) resulted in: stable assay Renilla, run 1 (luminescence) = 7866; stable assay firefly, run 1 (luminescence) = 3.81e5.
For CG7914, the values are stable assay Renilla, run 1 (luminescence) = 5339; stable assay firefly, run 1 (luminescence) = 3.89e5.
Against sw + Sdic4 + Sdic3 + 2 more, the entry reads stable assay Renilla, run 1 (luminescence) = 5910; stable assay firefly, run 1 (luminescence) = 5.07e5.
After knock-down of CG12768 #1, the screen gave stable assay Renilla, run 1 (luminescence) = 5498; stable assay firefly, run 1 (luminescence) = 2.68e5.
Against CG12768 #2 the deposit lists stable assay Renilla, run 1 (luminescence) = 3995; stable assay firefly, run 1 (luminescence) = 2.88e5.
Depletion of CG12768 #3 gave: miRNA reporter change reporter ratio raised past the hit cutoff.

Laid out differently: entries from further up
| target | dsRNA no. | miRNA reporter change | stable assay Renilla, run 1 (luminescence) | stable assay firefly, run 1 (luminescence) |
| --- | --- | --- | --- | --- |
| CG2211 | 1 | – | 6287 | 3.49e5 |
| sisA | 1 | – | 5090 | 3.81e5 |

More records follow:
For CAHbeta (Carbonic anhydrase beta) the deposit lists stable assay Renilla, run 1 (luminescence) = 8579; stable assay firefly, run 1 (luminescence) = 4.53e5.
Against Ir68a (Ionotropic receptor 68a) the deposit lists stable assay Renilla, run 1 (luminescence) = 5575; stable assay firefly, run 1 (luminescence) = 3.13e5.
Against CG32243, the entry reads stable assay Renilla, run 1 (luminescence) = 5259; stable assay firefly, run 1 (luminescence) = 5.10e5.
Depletion of CG7420 came out at: stable assay Renilla, run 1 (luminescence) = 36866; stable assay firefly, run 1 (luminescence) = 79031.
Against slp1 (sloppy paired 1), the values are stable assay Renilla, run 1 (luminescence) = 1.05e5; stable assay firefly, run 1 (luminescence) = 1.37e5.
With knock-down of CG13086, the screen gave stable assay Renilla, run 1 (luminescence) = 7163; stable assay firefly, run 1 (luminescence) = 4.70e5.
Silencing of pb (proboscipedia) #1 came out at: stable assay Renilla, run 1 (luminescence) = 6487; stable assay firefly, run 1 (luminescence) = 4.30e5.
Against pb (proboscipedia) #2 the deposit lists stable assay Renilla, run 1 (luminescence) = 5704; stable assay firefly, run 1 (luminescence) = 3.74e5.
